These are yes or no findings as the source states them, for the method shown. In cells and extracts the contact can be indirect. For some of these results: Binding can be weak; no strength is given. Tags and fused reporters may be left off the sequences shown.
Legend:
[1] = biological target: TRIM25 truncation: Ring/B-box/CC domain (human); assay: co-IP; 293T cells cotransfected with TRIM25 or its truncations and flag-NLRP12 or His-HK2; IP and Western blot
[2] = biological target: TRIM25 truncation: PRY/SPRY domain (human); assay: as above

Row | binding [1] | binding [2] | Binder
1 | binds | no binding | flag-NLRP12 (protein, UniProt P59046 1-1061) MLRTAGRDGLCRLSTYLEELEAVELKKFKLYLGTATELGEGKIPWGSMEKAGPLEMAQLLITHFGPEEAWRLALSTFERINRKDLWERGQREDLVRDTPPGGPSSLGNQSTCLLEVSLVTPRKDPQETYRDYVRRKFRLMEDRNARLGECVNLSHRYTRLLLVKEHSNPMQVQQQLLDTGRGHARTVGHQASPIKIETLFEPDEERPEPPRTVVMQGAAGIGKSMLAHKVMLDWADGKLFQGRFDYLFYINCREMNQSATECSMQDLIFSCWPEPSAPLQELIRVPERLLFIIDGFDELKPSFHDPQGPWCLCWEEKRPTELLLNSLIRKKLLPELSLLITTRPTALEKLHRLLEHPRHVEILGFSEAERKEYFYKYFHNAEQAGQVFNYVRDNEPLFTMCFVPLVCWVVCTCLQQQLEGGGLLRQTSRTTTAVYMLYLLSLMQPKPGAPRLQPPPNQRGLCSLAADGLWNQKILFEEQDLRKHGLDGEDVSAFLNMNIFQKDINCERYYSFIHLSFQEFFAAMYYILDEGEGGAGPDQDVTRLLTEYAFSERSFLALTSRFLFGLLNEETRSHLEKSLCWKVSPHIKMDLLQWIQSKAQSDGSTLQQGSLEFFSCLYEIQEEEFIQQALSHFQVIVVSNIASKMEHMVSSFCLKRCRSAQVLHLYGATYSADGEDRARCSAGAHTLLVQLPERTVLLDAYSEHLAAALCTNPNLIELSLYRNALGSRGVKLLCQGLRHPNCKLQNLRLKRCRISSSACEDLSAALIANKNLTRMDLSGNGVGFPGMMLLCEGLRHPQCRLQMIQLRKCQLESGACQEMASVLGTNPHLVELDLTGNALEDLGLRLLCQGLRHPVCRLRTLWLKICRLTAAACDELASTLSVNQSLRELDLSLNELGDLGVLLLCEGLRHPTCKLQTLRLGICRLGSAACEGLSVVLQANHNLRELDLSFNDLGDWGLWLLAEGLQHPACRLQKLWLDSCGLTAKACENLYFTLGINQTLTDLYLTNNALGDTGVRLLCKRLSHPGCKLRVLWLFGMDLNKMTHSRLAALRVTKPYLDIGC
2 | binds | no binding | His-HK2 (enzyme, UniProt P52789 1-917) MIASHLLAYFFTELNHDQVQKVDQYLYHMRLSDETLLEISKRFRKEMEKGLGATTHPTAAVKMLPTFVRSTPDGTEHGEFLALDLGGTNFRVLWVKVTDNGLQKVEMENQIYAIPEDIMRGSGTQLFDHIAECLANFMDKLQIKDKKLPLGFTFSFPCHQTKLDESFLVSWTKGFKSSGVEGRDVVALIRKAIQRRGDFDIDIVAVVNDTVGTMMTCGYDDHNCEIGLIVGTGSNACYMEEMRHIDMVEGDEGRMCINMEWGAFGDDGSLNDIRTEFDQEIDMGSLNPGKQLFEKMISGMYMGELVRLILVKMAKEELLFGGKLSPELLNTGRFETKDISDIEGEKDGIRKAREVLMRLGLDPTQEDCVATHRICQIVSTRSASLCAATLAAVLQRIKENKGEERLRSTIGVDGSVYKKHPHFAKRLHKTVRRLVPGCDVRFLRSEDGSGKGAAMVTAVAYRLADQHRARQKTLEHLQLSHDQLLEVKRRMKVEMERGLSKETHASAPVKMLPTYVCATPDGTEKGDFLALDLGGTNFRVLLVRVRNGKWGGVEMHNKIYAIPQEVMHGTGDELFDHIVQCIADFLEYMGMKGVSLPLGFTFSFPCQQNSLDESILLKWTKGFKASGCEGEDVVTLLKEAIHRREEFDLDVVAVVNDTVGTMMTCGFEDPHCEVGLIVGTGSNACYMEEMRNVELVEGEEGRMCVNMEWGAFGDNGCLDDFRTEFDVAVDELSLNPGKQRFEKMISGMYLGEIVRNILIDFTKRGLLFRGRISERLKTRGIFETKFLSQIESDCLALLQVRAILQHLGLESTCDDSIIVKEVCTVVARRAAQLCGAGMAAVVDRIRENRGLDALKVTVGVDGTLYKLHPHFAKVMHETVKDLAPKCDVSFLQSEDGSGKGAALITAVACRIREAGQR

— publication PMC12343871
